From patent US10973831B2, “Fluoropiperidine compounds as pure 5-HT 6 receptor antagonists” (SUVEN LIFE SCIENCES LIMITED, priority 2017, dated 2021)

System: extracellular levels of acetylcholine in ventral hippocampus
Assay: Acetylcholine modulation in ventral hippocampus (microdialysis)
Type: in vivo, male Wistar rats
Settings: donepezil 1 mg/kg, s.c. alone
From the text: Four groups of male Wistar rats (240-300 g body weight) were stereotaxically implanted with a microdialysis guide cannula in ventral hippocampus (AP: −5.2 mm, ML: +5.0 mm, DV: −3.8 mm) under isoflurane anesthesia. Co-ordinates were taken according to atlas for the rat brain (Paxinos and Watson 2004) with reference points taken from bregma and vertical from the skull. […] After surgical recovery of 4-5 days, male Wistar rats were connected to dual quartz lined two-channel liquid swivel (Instech, UK) on a counter balance lever arm, which allowed unrestricted movements of the animal. […] On the day of study, probe was perfused with artificial cerebrospinal fluid (aCSF; NaCl 147 mM, KC13 mM, MgCl2 1 mM, CaCl2. 2H2O 1.3 mM, NaH2PO4.2H2O 0.2 mM and Na2HPO4.7H2O 1 mM, pH 7.2) at a flow rate of 1.5 μL/min and a stabilization period of 2 h was maintained. […] For two groups of the male Wistar rats, donepezil (1 mg/kg, s.c.) was administered 30 min after administration of example 1 and for another group of rats donepezil (1 mg/kg, s.c.)+memantine (1 mg/kg, s.c.) combination administered 30 min after administration of example 1. Dialysate samples were collected for an additional period of 4 h post treatment of example 1. Dialysates were stored below −50° C. prior to analysis. Acetylcholine in dialysate was quantified using LC-MS/MS method in the calibration range of 0.099 nmol/L-70.171 nmol/L. […]

Compound: COc1cc2c(cc1OC)C(=O)C(CC1CCN(Cc3ccccc3)CC1)C2 (stereo not shown) [donepezil, reference compound]
- hippocampal acetylcholine levels, maximum, % of basal levels: 888±85%
